From article PMC9600955 come the findings set out here.

No constants are given. Whether binding was seen depends on the method and setting. Binding seen in cells or lysates may run through a third protein. A yes stands for co-enrichment or nearness to the bait. Other partners may have been found. No binding means not detected with the bait.

The target of test [1] is VSV-G epitope tagged TelC (Streptococcus intermedius B196). Put plainly: affinity purification with mass spectrometry.
Test [2] has as its target VSV-G-tagged LapC1 (Streptococcus intermedius B196). Put plainly: affinity purification with mass spectrometry.

B1: PepC (enzyme, UniProt T1ZEN3 1-445)
chain: MNSLDQQFTDKLYANYEANMKYAAIENAVSHNGLLTSLEKRNSAAENNPVFSIDLTKDKVSNQKASGRCWMFAALNTFRHKMIAGFQLEEFELSQAHTFFWDKYEKSNWFLEQVLATADQELTSRKVKFLLDTPQQDGGQWDMVVALFEKYGVVPKSVYPESISSSNSRELNQYLNKLLRQDAQILRDLVTSGADAAAAQEKKEELLQEIFNFLAMTLGLPPRTFDFAYRDKDNNFHGESGLTPQAFYKKYVDIKLDDYVSIINAPTADKPYGKSYTVEMLGNVVGARDVRYLNVDMNRLKELAIAQMQAGETVWFGSDVGQSSNRKAGVMVNNMYDFTSSMDIELTQDKAGRLDYSESLMTHAMVLTGVDLDENGKSTKWKVENSWGDKVGDKGYFVASDDWMDEYTYQIVIRKEFLTAEELAAYEAEPKVLAPWDPMGALASK
For the molecule B1, the binding result in test [1] and in test [2] was “no binding” in each case.
